# Assay results taken from patent US20030091564A1.
# Sequences of proteins named here, by UniProt entry; tags and fusion partners are left off. A change or cut given only in a name is not applied to a line headed by its entry.
# UniProt P27548: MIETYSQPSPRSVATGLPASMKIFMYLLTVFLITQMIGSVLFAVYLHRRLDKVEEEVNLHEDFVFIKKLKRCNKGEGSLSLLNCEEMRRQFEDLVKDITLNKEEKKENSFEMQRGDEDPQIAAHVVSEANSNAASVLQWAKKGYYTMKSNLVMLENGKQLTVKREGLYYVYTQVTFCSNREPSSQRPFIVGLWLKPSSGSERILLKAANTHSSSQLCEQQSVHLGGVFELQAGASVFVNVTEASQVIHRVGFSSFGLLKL
# No constants are given. Whether binding was seen depends on the method and setting. Some entries that bind do so weakly or less than the wild type.
# Tests used:
# [1] = biological target: membrane-bound murine CD40-L (murine) (UniProt P27548); assay: slide autoradiography, 125I-CD40/Fc on CV1-EBNA cells transfected with murine CD40-L clones
# [2] = biological target: CD40/Fc fusion protein (human) (UniProt P25942); assay: solid phase assay with CD40Fc
# [3] = biological target: CD40/Fc fusion protein (human) (UniProt P25942); assay: CD40Fc receptor binding assay, crude supernatants
substance,measurement,setting,value
CD40/Fc fusion protein (from UniProt P25942 21-193),binding,[1],binds
monomeric murine CD40-L with Flag (from UniProt P27548 119-260) (ligand),binding,[2],binds
monomeric murine CD40-L without amino terminal Flag (from UniProt P27548 112-260) (ligand),binding,[3],binds
